# Laboratory results published in paper PMC3701561.
# No constants are given. Whether binding was seen depends on the method and setting. Binding can be weak; no strength is given.
# Target: BnaMPK1 (Brassica napus) (UniProt S4TFK2)
# Assay: two-hybrid; yeast AH109; BnaMPKs in pGBKT7, BnaMKKs and BnaWRKYs (whole or truncated) in pGADT7; growth on SD-LTHA, dilution series, X-gal colony-lift staining
row,Substance,binding
1,BnaMKK2 (from UniProt S4TFK1),no binding
2,BnaMKK9 (from UniProt S4TFE5),binds

# Further lines, results first:
row,binding,Substance
1,no binding,BnaMKK1 (from UniProt S4TFE4)
2,no binding,BnaMKK4 (from UniProt S4TFY8)
3,no binding,BnaMKK5 (from UniProt S4TFZ1)

# Target: BnaMPK19 (Brassica napus) (UniProt S4TFP8)
# Assay: as above
row,binding,Substance
1,no binding,BnaMKK4 (from UniProt S4TFY8)
2,no binding,BnaMKK5 (from UniProt S4TFZ1)
3,binds,BnaMKK9 (from UniProt S4TFE5)

# Target: BnaMPK2 (Brassica napus) (UniProt S4TFE6)
# Assay: as above
row,Substance,binding
1,BnaMKK2 (from UniProt S4TFK1),no binding
2,BnaMKK9 (from UniProt S4TFE5),binds

# The remaining lines, values ahead:
row,binding,Substance
1,no binding,BnaMKK1 (from UniProt S4TFE4)
2,no binding,BnaMKK4 (from UniProt S4TFY8)
3,no binding,BnaMKK5 (from UniProt S4TFZ1)

# Target: BnaMPK20 (Brassica napus) (UniProt S4TFK4)
# Assay: as above
row,Substance,binding
1,BnaMKK2 (from UniProt S4TFK1),no binding
2,BnaMKK9 (from UniProt S4TFE5),binds

# More lines, now with the values ahead:
row,binding,Substance
1,no binding,BnaMKK1 (from UniProt S4TFE4)
2,no binding,BnaMKK4 (from UniProt S4TFY8)
3,no binding,BnaMKK5 (from UniProt S4TFZ1)

# Target: BnaMPK3 (Brassica napus) (UniProt S4TG54)
# Assay: as above
row,Substance,binding
1,BnaMKK2 (from UniProt S4TFK1),binds
2,BnaMKK9 (from UniProt S4TFE5),no binding

# More lines, now with the values ahead:
row,binding,Substance
1,binds,BnaMKK1 (from UniProt S4TFE4)
2,binds,BnaMKK4 (from UniProt S4TFY8)
3,binds,BnaMKK5 (from UniProt S4TFZ1)

# Target: BnaMPK5 (Brassica napus)
# Assay: as above
row,Substance,binding
1,BnaMKK2 (from UniProt S4TFK1),no binding
2,BnaMKK9 (from UniProt S4TFE5),binds

# Results, then the substance that gave them:
row,binding,Substance
1,no binding,BnaMKK1 (from UniProt S4TFE4)
2,no binding,BnaMKK4 (from UniProt S4TFY8)
3,no binding,BnaMKK5 (from UniProt S4TFZ1)

# Target: BnaMPK6 (Brassica napus) (UniProt S4TFE7)
# Assay: as above
row,Substance,binding
1,BnaMKK2 (from UniProt S4TFK1),binds
2,BnaMKK9 (from UniProt S4TFE5),no binding

# Continued, values first:
row,binding,Substance
1,binds,BnaMKK1 (from UniProt S4TFE4)
2,binds,BnaMKK4 (from UniProt S4TFY8)
3,binds,BnaMKK5 (from UniProt S4TFZ1)

# Target: BnaMPK9 (Brassica napus) (UniProt Q5XU40)
# Assay: as above
row,Substance,binding
1,BnaMKK2 (from UniProt S4TFK1),no binding
2,BnaMKK9 (from UniProt S4TFE5),binds

# The next lines start with the values.
row,binding,Substance
1,no binding,BnaMKK1 (from UniProt S4TFE4)
2,no binding,BnaMKK4 (from UniProt S4TFY8)
3,no binding,BnaMKK5 (from UniProt S4TFZ1)
